Taken from: PubChem BioAssay AID1259254 (NCATS, 2017)
Purpose: 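Genome-wide screen for genes that prevent DNA re-replication in cancer cells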 (primary screen). System: human HCT116 colorectal cancer cells. Knock-down reagent: single siRNA against human genes. Time to read-out: 3 days. Read-out: 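Imaged Hoechst DNA stain sorts each cell into a cycle phase by DNA amount; per plate, G2 fraction set to 0% for non-targeting and 100% for GMNN siRNA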. Scale: G2 robust z-score and G2 cells, % of GMNN control: higher = more G2 cells, more excess DNA replication; raw share of cells in G2: higher = larger share of cells with G2 DNA content. Rule for the call: 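Active siRNAs have a G2 robust z of 5 or more median absolute deviations over the median, which in these data means about 38% or higher of GMNN control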.
Here is a random part of about 59,000 deposited reagents. About 1,550 of all reagents (2.6%) were called active. 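G2 share is only a proxy for re-replication; each gene was hit by three separate siRNAs, and active genes were retested.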 Raw values are not corrected between plates. A number with no mark means an inactive call. Reagents against one gene are numbered here. Not given: the amount of reagent.

target gene,reagent,G2 robust z-score,"G2 cells, % of GMNN control",raw share of cells in G2 (%)
FBXW10B,1,0.483,6.37,6.17
FBXW10B,2,-0.0188,2.83,4.5
FBXW10B,3,0.442,6.08,6.64
RUNDC3B,1,-0.524,-0.72,3.34
RUNDC3B,2,0.187,4.28,4.4
RUNDC3B,3,-0.349,0.515,2.92
SH3TC1,1,-0.738,-2.23,2.81
SH3TC1,2,-0.641,-1.54,3.62
SH3TC1,3,1.74,15.2,8.23
CDHR1,1,-0.998,-4.05,3.79
CDHR1,2,7.89 (active),58.5,30.1
CDHR1,3,-0.926,-3.55,3.14
PDCD2,1,-1.02,-4.24,1.78
PDCD2,2,4.06,31.5,19.6
PDCD2,3,-0.0279,2.77,4.11
CTDSP2,1,0.353,5.45,6.57
CTDSP2,2,1.02,10.1,7.36
CTDSP2,3,0.718,8.02,5.91
CD300LG,1,-0.0558,2.58,4.69
CD300LG,2,0.989,9.93,5.98
CD300LG,3,-0.169,1.78,3.69
TCF7L1,1,-0.0501,2.61,5.75
TCF7L1,2,3.26,25.9,16.2
TCF7L1,3,0.907,9.35,7.58
PIEZO1P1,1,-0.054,2.59,3.87
PIEZO1P1,2,0.108,3.73,5.18
PIEZO1P1,3,-0.576,-1.08,2.82
OR6C3,1,2.2,18.5,10.3
OR6C3,2,-0.47,-0.341,3.01
OR6C3,3,9.15 (active),67.4,24.7
SPOCK3,1,-0.207,1.51,4.38
SPOCK3,2,-0.891,-3.3,4.46
SPOCK3,3,-0.723,-2.12,3.46
RIC8A,1,0.764,8.34,4.9
RIC8A,2,0.652,7.55,7.87
RIC8A,3,-0.879,-3.21,3.17
CCDC74A,1,0.22,4.52,6
CCDC74A,2,0.32,5.22,4.64
CCDC74A,3,1.62,14.4,7.48
QDPR,1,-0.366,0.392,4.28
QDPR,2,0.46,6.21,7.11
QDPR,3,0.149,4.01,6.21
NTRK2,1,-0.49,-0.477,5.45
NTRK2,2,0.357,5.48,7.26
NTRK2,3,0.644,7.5,6.67
SIGLEC15,1,2.06,17.4,8.56
SIGLEC15,2,-0.13,2.05,4.39
SIGLEC15,3,0.0445,3.28,4.31
ELOVL6,1,0.705,7.93,7.15
ELOVL6,2,3.47,27.4,14.2
ELOVL6,3,0.17,4.16,7.37
UCK1,1,3.91,30.5,15.1
UCK1,2,0.017,3.09,6.31
UCK1,3,0.5,6.49,5.76
FYB2,1,0.665,7.64,6.34
FYB2,2,-0.292,0.914,3.27
FYB2,3,5.89 (active),44.4,16.8
SNX11,1,-0.495,-0.513,3.47
SNX11,2,0.283,4.96,4.54
SNX11,3,-1.38,-6.75,2.86
L3MBTL2,1,0.691,7.83,5.56
L3MBTL2,2,-0.67,-1.75,5.12
L3MBTL2,3,0.491,6.42,5.65
SPINK2,1,-0.0113,2.89,6.65
SPINK2,2,-0.0348,2.72,4.86
SPINK2,3,-0.0786,2.41,5.37
SFXN4,1,-1.3,-6.15,2.33
SFXN4,2,-0.439,-0.121,4.43
SFXN4,3,6.52 (active),48.9,28.4
CALCR,1,0.561,6.91,8.31
CALCR,2,0.159,4.09,5.95
CALCR,3,-0.943,-3.67,2.14
TRA2A,1,10.3 (active),75.2,29.1
TRA2A,2,0.0984,3.66,7.82
TRA2A,3,0.679,7.75,6.53
ST8SIA1,1,2.4,19.9,12.4
ST8SIA1,2,1.02,10.1,8.02
ST8SIA1,3,1.6,14.2,8.66
LOC442132,1,1.93,16.6,9.7
LOC442132,2,0.657,7.59,5.7
LOC442132,3,0.176,4.21,5.25
PDE9A,1,1.82,15.8,9.06
PDE9A,2,-0.486,-0.45,3.36
PDE9A,3,-0.563,-0.991,4.47
IGFBP4,1,-0.188,1.65,6.07
IGFBP4,2,-0.37,0.367,4.22
IGFBP4,3,0.421,5.93,5.84

Part of the list above in another layout:
target gene	reagent	G2 robust z-score	G2 cells, % of GMNN control	raw share of cells in G2 (%)
SIGLEC15	1	2.06	17.4	8.56
SIGLEC15	2	-0.13	2.05	4.39
SIGLEC15	3	0.0445	3.28	4.31
ELOVL6	1	0.705	7.93	7.15
ELOVL6	2	3.47	27.4	14.2
